Our source for the SI: selectivity index, ratio IC50 (BuChE)/IC50 (AChE) values is paper PMC5784158, “New 2-Aryl-9-methyl-β-carbolinium salts as Potential Acetylcholinesterase Inhibitor agents: Synthesis, Bioactivity and Structure–Activity Relationship” (Scientific Reports, 2018).

The chains behind the UniProt entries cited, without tags or fusion partners. Residues count along the entry.
UniProt Q7YWJ9, 81-659 limits assumed: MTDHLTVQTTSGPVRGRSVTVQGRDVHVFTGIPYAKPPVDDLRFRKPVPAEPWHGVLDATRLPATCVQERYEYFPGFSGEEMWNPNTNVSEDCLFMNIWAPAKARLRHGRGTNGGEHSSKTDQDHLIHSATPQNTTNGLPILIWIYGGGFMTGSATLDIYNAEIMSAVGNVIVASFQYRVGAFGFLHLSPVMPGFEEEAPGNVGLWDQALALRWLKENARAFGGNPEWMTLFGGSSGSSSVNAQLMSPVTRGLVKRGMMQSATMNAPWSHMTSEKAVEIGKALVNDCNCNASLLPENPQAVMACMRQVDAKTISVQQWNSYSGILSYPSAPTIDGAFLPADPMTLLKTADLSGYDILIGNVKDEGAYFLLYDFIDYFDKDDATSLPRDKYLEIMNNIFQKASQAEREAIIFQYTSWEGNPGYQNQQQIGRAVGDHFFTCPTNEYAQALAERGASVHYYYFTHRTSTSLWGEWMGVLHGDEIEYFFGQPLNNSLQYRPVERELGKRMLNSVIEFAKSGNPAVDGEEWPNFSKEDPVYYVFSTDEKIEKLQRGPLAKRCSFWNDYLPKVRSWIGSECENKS

Structures are written as SMILES. For part of its entries the source gives two or more results. They are shown here; other results are not. An entry can have further records. The values listed for one entry differ for a reason that is not stated; some may be repeats, others may stem from another dose, organism or construct than stated.

This test has as its target AChE (Musca domestica, UniProt Q7YWJ9). Particulars: tested form: bromide.

`C1=[N+](c2ccccc2)CCc2c1[nH]c1ccccc21` [Compound A46]: the SI: selectivity index, ratio IC50 (BuChE)/IC50 (AChE) was < 1 and 0.21.
